Results taken from patent publication US20030108998A1.
These are yes or no findings as the source states them, for the method shown. Some entries that bind do so weakly or less than the wild type.

Sequences of proteins named here, by UniProt entry; tags and fusion partners are left off. Residues count along the entry.
UniProt P20414, residues 24-207: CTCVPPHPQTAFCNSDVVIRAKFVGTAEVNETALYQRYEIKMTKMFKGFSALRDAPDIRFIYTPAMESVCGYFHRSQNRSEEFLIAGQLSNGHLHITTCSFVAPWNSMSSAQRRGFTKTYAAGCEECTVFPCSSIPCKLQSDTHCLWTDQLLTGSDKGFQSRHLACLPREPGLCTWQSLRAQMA

Target: bovine tissue inhibitor of metalloproteinases-1 (TIMP-1) (bovine) (UniProt P20414)
Assay: affinity purification: ADMP captured on TIMP-1, with the complex pulled down by anti-TIMP-1 mAb on a protein A column

binding: binds
B1: ADMP-1 (aggrecan degrading metallo protease 1), 67 kDa active form purified from conditioned media of IL-1-stimulated bovine nasal cartilage (enzyme, UniProt Q9TT93 213-839, looked up)
chain: FASLSRFVETLVVADDKMAAFHGAGLKRYLLTVMAAAAKAFKHPSIRNPVSLVVTRLVVLGPGEEGPQVGPSAAQTLRSFCAWQRGLNTPDDADPGHFDTAILFTRQDLCGVSTCDTLGMADVGTVCDPARSCAIVEDDGLQSAFTAAHELGHVFSMLHDNSKQCTGLNGPESTSRHVMAPVMAHVDPEEPWSPCSARFITDFLDNGFGHCLLDKPEAPLHLPVTFPGKDYDADRQCQLTFGPDSRHCPQLPPPCAALWCSGHLNGHAMCQTKHSPWADGTPCGPAQACMGGRCLHVDQLQAFNVPQAGGWGPWGSWGDCSRSCGGGVQFSSRDCTRPVPRNGGKYCEGRRTRFRSCNTQDCPTGSALTFREEQCAAYNHRTDLFKNFPGPMDWVPRYTGVAPRDQCKLTCQTRALGYYYVLDPRVADGTPCSPDSSSVCVQGRCIHAGCDRVIGSKKKFDKCMVCGGDGSSCSKQSGSFKKFRYGYNNVVTIPAGATHILVRQQGSPSVRSLYLALKLPDGSYALNGEYTLIPSPTDVVLPGAVSLRYSGATAASETLSGHGPLAEPLTLQVLVAGNPQNARLRYSFFVPRPRPVPSTPRPTPQDWLRRKSQILEILRRRSWAGRK
